Source: the supplement of paper PMC4604168 (melanoma cell lines)
Some of the results follow. Single values are uncertain, as repeats are few or missing.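 The apoptosis fraction was the count of cleaved-PARP antibody-stained nuclei relative to all DNA-stained nuclei, imaged in 1,536-well plates. Screening doses were set so most cells survived, and baseline and induced cleaved-PARP levels vary greatly across cell lines.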

System: WM1716
Test: cleaved PARP positive nuclei fraction relative to DMSO control; melanoma cells; higher = more apoptosis
Details: library dose: low library concentration; 72 h

Row | SMILES | cleaved PARP positive nuclei fraction [%]
1 | Cc1cc(SCc2sc(-c3ccc(C(F)(F)F)c(F)c3)nc2C)ccc1OCC(=O)O + Oc1cc(-c2nc(-c3ccccc3)[nH]c2-c2ccncc2)ccc1Cl [L779450] (first compound 2 µM, partner dose 0.2 µM) | 104
2 | CC1(C)CCC(c2ccc(Cl)cc2)=C(CN2CCN(c3ccc(C(=O)NS(=O)(=O)c4ccc(N[C@H](CCN5CCOCC5)CSc5ccccc5)c(S(=O)(=O)C(F)(F)F)c4)cc3)CC2)C1 + O=C(Oc1ccc([N+](=O)[O-])cc1)N1CCC(C(O)(c2ccc3c(c2)OCO3)c2ccc3c(c2)OCO3)CC1 [JZL184] (first compound 0.4 µM, partner dose 1 µM) | 197
3 | CS(=O)(=O)c1ccc(C(=O)Nc2ccc(Cl)c(-c3ccccn3)c2)c(Cl)c1 [vismodegib] + N.N.[Cl][Pt][Cl] [cisplatin] (first compound 1 µM, partner dose 1.6 µM) | 98.2
4 | O=C(/C=C/c1cccnc1)NCCCCC1CCN(C(=O)c2ccccc2)CC1 + C/C(O)=C(\C#N)C(=O)Nc1cc(Br)ccc1Br [LFM-A13] (first compound 0.01 µM, partner dose 2 µM) | 28.9
5 | C[As](C)SC[C@H](NC(=O)CC[C@H](N)C(=O)O)C(=O)NCC(=O)O [Darinaparsin] + Cn1cc(/C=C2\C(=O)Nc3cccnc32)c2ccccc21 [GW441756] (first compound 0.4 µM, partner dose 0.4 µM) | 84.2
6 | C[As](C)SC[C@H](NC(=O)CC[C@H](N)C(=O)O)C(=O)NCC(=O)O [Darinaparsin] + COCC[n+]1c2c(n(Cc3cnccn3)c1C)C(=O)c1ccccc1C2=O [YM155] (first compound 0.4 µM, partner dose 0.0004 µM) | 41.9
7 | COc1cc2c(Oc3ccc4[nH]c(C)cc4c3F)ncnc2cc1OCCCN1CCCC1 [cediranib] + Cc1cc(SCc2sc(-c3ccc(C(F)(F)F)c(F)c3)nc2C)ccc1OCC(=O)O [GW0742] (first compound 0.4 µM, partner dose 2 µM) | 72
8 | C[C@]12O[C@H](C[C@]1(O)CO)n1c3ccccc3c3c4c(c5c6ccccc6n2c5c31)CNC4=O [Lestaurtinib] + Cn1c(=O)n(-c2ccc(C(C)(C)C#N)cc2)c2c3cc(-c4cnc5ccccc5c4)ccc3ncc21 [NVP-BEZ235] (first compound 0.004 µM, partner dose 0.004 µM) | 98.1
9 | CN(C)S(=O)(=O)c1ccc2c(c1)/C(=C/c1cc3c([nH]1)CCCC3)C(=O)N2 + O=C(Oc1ccc([N+](=O)[O-])cc1)N1CCC(C(O)(c2ccc3c(c2)OCO3)c2ccc3c(c2)OCO3)CC1 [JZL184] (first compound 0.4 µM, partner dose 1 µM) | 101
10 | Cc1cc(Nc2cc(N3CCN(C)CC3)nc(/C=C/c3ccccc3)n2)n[nH]1 + Cc1cc(SCc2sc(-c3ccc(C(F)(F)F)c(F)c3)nc2C)ccc1OCC(=O)O [GW0742] (first compound 0.04 µM, partner dose 2 µM) | 89.2
11 | N.N.[Cl][Pt][Cl] [cisplatin] + COc1cc2ncnc(Nc3ccc(Oc4ccccc4)cc3)c2cc1OC [SrcI1] (first compound 1.6 µM, partner dose 2 µM) | 78.5
12 | O=c1[nH]nc(Sc2ncc([N+](=O)[O-])s2)n1-c1ccc2c(c1)OCCO2 + O=C(Oc1ccc([N+](=O)[O-])cc1)N1CCC(C(O)(c2ccc3c(c2)OCO3)c2ccc3c(c2)OCO3)CC1 [JZL184] (first compound 0.2 µM, partner dose 1 µM) | 131
13 | N.N.[Cl][Pt][Cl] [cisplatin] + O=C(O)c1ccc(-c2c[nH]c3ncc(-c4ccccc4)cc23)cc1C1CCCC1 [GSK650394] (first compound 1.6 µM, partner dose 0.16 µM) | 85.2
14 | Cn1cc(C2=C(c3cn(C4CCN(Cc5ccccn5)CC4)c4ccccc34)C(=O)NC2=O)c2ccccc21 [Enzastaurin] + CNC(=O)c1cc(Oc2ccc(NC(=O)Nc3ccc(Cl)c(C(F)(F)F)c3)cc2)ccn1 [sorafenib] (first compound 0.8 µM, partner dose 0.4 µM) | 192
15 | O=c1[nH]nc(Sc2ncc([N+](=O)[O-])s2)n1-c1ccc2c(c1)OCCO2 + C[As](C)SC[C@H](NC(=O)CC[C@H](N)C(=O)O)C(=O)NCC(=O)O [Darinaparsin] (first compound 0.2 µM, partner dose 0.4 µM) | 20.7
16 | N#CC[C@H](C1CCCC1)n1cc(-c2ncnc3[nH]ccc23)cn1 [ruxolitinib] + Cn1cc(C2=C(c3cn(C4CCN(Cc5ccccn5)CC4)c4ccccc34)C(=O)NC2=O)c2ccccc21 [Enzastaurin] (first compound 1 µM, partner dose 0.8 µM) | 81.1
17 | Cc1cn(-c2cc(NC(=O)c3ccc(C)c(Nc4nccc(-c5cccnc5)n4)c3)cc(C(F)(F)F)c2)cn1 [nilotinib] + C/C(O)=C(\C#N)C(=O)Nc1cc(Br)ccc1Br [LFM-A13] (first compound 0.2 µM, partner dose 2 µM) | 184
18 | C[As](C)SC[C@H](NC(=O)CC[C@H](N)C(=O)O)C(=O)NCC(=O)O [Darinaparsin] + Cc1cc(N2CCOCC2)cc2[nH]c(-c3c(NC[C@@H](O)c4cccc(Cl)c4)cc[nH]c3=O)nc12 [BMS536924] (first compound 0.4 µM, partner dose 0.2 µM) | 172
19 | N.N.[Cl][Pt][Cl] [cisplatin] + Nc1ccn([C@@H]2O[C@H](CO)[C@@H](O)C2(F)F)c(=O)n1 [gemcitabine] (first compound 1.6 µM, partner dose 0.0004 µM) | 56.1
20 | CC(C)C[C@H](NC(=O)[C@H](Cc1ccccc1)NC(=O)c1cnccn1)B(O)O [Bortezomib] + O=C(Oc1ccc([N+](=O)[O-])cc1)N1CCC(C(O)(c2ccc3c(c2)OCO3)c2ccc3c(c2)OCO3)CC1 [JZL184] (first compound 0.001 µM, partner dose 1 µM) | 524
21 | Cc1cc([N+](=O)[O-])ccc1NS(=O)(=O)c1cc(Cl)ccc1Cl + O=C(Oc1ccc([N+](=O)[O-])cc1)N1CCC(C(O)(c2ccc3c(c2)OCO3)c2ccc3c(c2)OCO3)CC1 [JZL184] (first compound 1 µM, partner dose 1 µM) | 125
22 | C[C@]12O[C@H](C[C@]1(O)CO)n1c3ccccc3c3c4c(c5c6ccccc6n2c5c31)CNC4=O [Lestaurtinib] + NC(=O)Nc1cc(-c2cccc(F)c2)sc1C(=O)N[C@H]1CCCNC1 [AZD7762] (first compound 0.004 µM, partner dose 0.02 µM) | 192
23 | Cn1cc(C2=C(c3cn(C4CCN(Cc5ccccn5)CC4)c4ccccc34)C(=O)NC2=O)c2ccccc21 [Enzastaurin] + CO[C@H]1C[C@@H]2CC[C@@H](C)[C@@](O)(O2)C(=O)C(=O)N2CCCC[C@H]2C(=O)O[C@H]([C@H](C)C[C@@H]2CC[C@@H](OCCO)[C@H](OC)C2)CC(=O)[C@H](C)/C=C(\C)[C@@H](O)[C@@H](OC)C(=O)[C@H](C)C[C@H](C)/C=C/C=C/C=C/1C [everolimus] (first compound 0.8 µM, partner dose 0.02 µM) | 73.3
24 | Cn1cc(C2=C(c3cn(C4CCN(Cc5ccccn5)CC4)c4ccccc34)C(=O)NC2=O)c2ccccc21 [Enzastaurin] + CC(C)(C)c1cnc(CSc2cnc(NC(=O)C3CCNCC3)s2)o1 [SNS-032] (first compound 0.8 µM, partner dose 0.01 µM) | 124
25 | C[C@@H](Oc1cc(-c2cnn(C3CCNCC3)c2)cnc1N)c1c(Cl)ccc(F)c1Cl [Crizotinib] + C[As](C)SC[C@H](NC(=O)CC[C@H](N)C(=O)O)C(=O)NCC(=O)O [Darinaparsin] (first compound 0.2 µM, partner dose 0.4 µM) | 84.1
26 | C[C@]12O[C@H](C[C@]1(O)CO)n1c3ccccc3c3c4c(c5c6ccccc6n2c5c31)CNC4=O [Lestaurtinib] + C[C@]1(c2nc3c(C(N)=O)cccc3[nH]2)CCCN1 [Veliparib] (first compound 0.004 µM, partner dose 1.4 µM) | 221
27 | CS(=O)(=O)CCNCc1ccc(-c2ccc3ncnc(Nc4ccc(OCc5cccc(F)c5)c(Cl)c4)c3c2)o1 [lapatinib] + Cc1cc(SCc2sc(-c3ccc(C(F)(F)F)c(F)c3)nc2C)ccc1OCC(=O)O [GW0742] (first compound 0.8 µM, partner dose 2 µM) | 254
28 | C[C@]12O[C@H](C[C@]1(O)CO)n1c3ccccc3c3c4c(c5c6ccccc6n2c5c31)CNC4=O [Lestaurtinib] + Nc1ccn([C@@H]2O[C@H](CO)[C@@H](O)C2(F)F)c(=O)n1 [gemcitabine] (first compound 0.004 µM, partner dose 0.0004 µM) | 263

Reprinted at random: 2 records from the list
Row | SMILES | cleaved PARP positive nuclei fraction [%]
28 | C[C@]12O[C@H](C[C@]1(O)CO)n1c3ccccc3c3c4c(c5c6ccccc6n2c5c31)CNC4=O [Lestaurtinib] + Nc1ccn([C@@H]2O[C@H](CO)[C@@H](O)C2(F)F)c(=O)n1 [gemcitabine] (first compound 0.004 µM, partner dose 0.0004 µM) | 263
16 | N#CC[C@H](C1CCCC1)n1cc(-c2ncnc3[nH]ccc23)cn1 [ruxolitinib] + Cn1cc(C2=C(c3cn(C4CCN(Cc5ccccn5)CC4)c4ccccc34)C(=O)NC2=O)c2ccccc21 [Enzastaurin] (first compound 1 µM, partner dose 0.8 µM) | 81.1
